From PMC3519819
No constants are given. Whether binding was seen depends on the method and setting. In cells and extracts the contact can be indirect. Some binding calls cover weakened binding; strength is not graded here. Sequences can lack the tags named with a protein.

Amino acid sequences for entries named in this document (tags omitted).
UniProt P0A6B7: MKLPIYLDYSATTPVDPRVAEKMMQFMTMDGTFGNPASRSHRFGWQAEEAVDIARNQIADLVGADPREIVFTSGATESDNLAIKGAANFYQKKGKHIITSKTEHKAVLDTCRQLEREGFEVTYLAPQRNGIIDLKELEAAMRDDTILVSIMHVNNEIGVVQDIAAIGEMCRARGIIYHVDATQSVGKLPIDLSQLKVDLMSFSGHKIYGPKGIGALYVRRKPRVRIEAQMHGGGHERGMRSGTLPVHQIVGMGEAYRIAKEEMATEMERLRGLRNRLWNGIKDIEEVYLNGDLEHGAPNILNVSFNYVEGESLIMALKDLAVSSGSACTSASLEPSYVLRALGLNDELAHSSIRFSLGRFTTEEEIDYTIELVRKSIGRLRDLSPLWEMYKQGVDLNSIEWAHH

B1: GST tagged DptC, E2D677 1-544 (protein)
chain: MSKLVQAYDLAEYEDFINQEQFAGRPLAEYVAEVQRIYCADKRPWVIGYSGGKDSSAVITLVYLALLGLPPEMRSKDVFIVSSDTLVETPVVVDLIKKTMLQIEAGAKRNGLPITQHAVTPKTNETFWVNLLGKGYPAPTRSFRWCTERMKINPVSDFIKDKVSQFDEVIVVLGSRSSESASRAQVIAKHKIDGSRLARHTTLANAFIYTPIDTWDVEDVWKLLRGAFRYAPEDIDEWESPWGGNNRPLWTLYMDSSAQGECPLVIDESTPSCGNSRFGCWTCTVVTKDKAMESLIKNGEEWMSPLLKYRDLLAFTTDPANKDTYRNYKRRTGKVSYQYAKDGEDRSAERKHVPGPYWLKYRQQWLKDLLEIERDLNAQGHTITLITQPELHAIRQEWLKDPNEPDWHDTLPEIYREVYQQDLNWVVDDQSRFDASDADLLAQITQGFDVVPEMVMKLIELETSMEGLSRRQGIFDKLGTILKQDWGSLEEIQQQQATLQKRNDRDIHQDEVEKLEAELQTLQRRIIDAGESSVLIDEENERAH
B2: GST tagged DptE (protein, UniProt E2D679 1-117)
chain: MLPNRMVLSRQTEDQLKKLKGYTGITPNVAARLAFFRSVESEFRYSPERDSKKLDGSLVLDKITWLGETLQATELVLKMLYPQLEQKILIKAWAAHVDDGIAALRNYRSLKDFSKNI

Key:
[1] = target: Strep tagged IscS (E. coli), P0A6B7; assay: pull-down; Cell extracts of Strep-IscS and GST-DptC or GST-DptE mixed in equal volume, Streptactin resin, Buffer S (25 mM Hepes pH7.6, 100 mM KCl, 10% glycerol), 1 hour, eluted with 2.5 mM desthiobiotin; Western blot against GST; conditions: remark: other sources report otherwise
[2] = target: Strep tagged IscS (E. coli) (UniProt P0A6B7); assay: as above

Row | Binder | binding [1] | binding [2]
1 | B1 | binds | 
2 | B2 |  | binds
